Results taken from publication PMC12153122.
Residue numbers refer to the chain shown, from its start. Names and notes keep the numbering of the source. Results are given in words; binding and its absence hold for the method and conditions named. Binding seen in cells or lysates may run through a third protein. Some results given as binding are weak or reduced against the parent protein; the word gives no strength. Tags and fused reporters may be left off the sequences shown. One block for each binder: values may come before it.

By UniProt entry, the sequences of proteins in these tests, tags left out.
UniProt Q86U44: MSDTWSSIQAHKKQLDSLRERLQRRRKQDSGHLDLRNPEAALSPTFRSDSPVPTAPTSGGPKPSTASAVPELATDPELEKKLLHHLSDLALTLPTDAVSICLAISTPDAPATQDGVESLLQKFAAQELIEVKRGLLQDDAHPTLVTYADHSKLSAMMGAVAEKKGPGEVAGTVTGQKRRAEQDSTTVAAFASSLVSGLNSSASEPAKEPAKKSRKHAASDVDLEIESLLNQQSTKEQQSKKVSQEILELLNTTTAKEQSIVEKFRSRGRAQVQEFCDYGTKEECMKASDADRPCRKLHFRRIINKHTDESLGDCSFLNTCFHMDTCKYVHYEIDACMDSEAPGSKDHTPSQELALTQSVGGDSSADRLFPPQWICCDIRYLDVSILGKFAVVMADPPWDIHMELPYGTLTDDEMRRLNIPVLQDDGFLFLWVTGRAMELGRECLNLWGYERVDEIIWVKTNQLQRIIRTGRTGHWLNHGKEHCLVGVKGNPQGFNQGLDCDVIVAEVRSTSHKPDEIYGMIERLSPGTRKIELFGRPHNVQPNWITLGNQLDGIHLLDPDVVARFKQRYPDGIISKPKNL

Biological target: Flag-METTL3 (UniProt Q86U44)
Test: co-IP; HEK293T cells transfected with Flag-METTL3 and HA-OGT, HA-OGT-K908A or truncated HA-OGT; lysates immunoprecipitated with anti-Flag antibody; Western blot with anti-HA and anti-Flag

binding: binds
B1: HA-OGT (enzyme, UniProt O15294 1-1046)
chain: MASSVGNVADSTEPTKRMLSFQGLAELAHREYQAGDFEAAERHCMQLWRQEPDNTGVLLLLSSIHFQCRRLDRSAHFSTLAIKQNPLLAEAYSNLGNVYKERGQLQEAIEHYRHALRLKPDFIDGYINLAAALVAAGDMEGAVQAYVSALQYNPDLYCVRSDLGNLLKALGRLEEAKACYLKAIETQPNFAVAWSNLGCVFNAQGEIWLAIHHFEKAVTLDPNFLDAYINLGNVLKEARIFDRAVAAYLRALSLSPNHAVVHGNLACVYYEQGLIDLAIDTYRRAIELQPHFPDAYCNLANALKEKGSVAEAEDCYNTALRLCPTHADSLNNLANIKREQGNIEEAVRLYRKALEVFPEFAAAHSNLASVLQQQGKLQEALMHYKEAIRISPTFADAYSNMGNTLKEMQDVQGALQCYTRAIQINPAFADAHSNLASIHKDSGNIPEAIASYRTALKLKPDFPDAYCNLAHCLQIVCDWTDYDERMKKLVSIVADQLEKNRLPSVHPHHSMLYPLSHGFRKAIAERHGNLCLDKINVLHKPPYEHPKDLKLSDGRLRVGYVSSDFGNHPTSHLMQSIPGMHNPDKFEVFCYALSPDDGTNFRVKVMAEANHFIDLSQIPCNGKAADRIHQDGIHILVNMNGYTKGARNELFALRPAPIQAMWLGYPGTSGALFMDYIITDQETSPAEVAEQYSEKLAYMPHTFFIGDHANMFPHLKKKAVIDFKSNGHIYDNRIVLNGIDLKAFLDSLPDVKIVKMKCPDGGDNADSSNTALNMPVIPMNTIAEAVIEMINRGQIQITINGFSISNGLATTQINNKAATGEEVPRTIIVTTRSQYGLPEDAIVYCNFNQLYKIDPSTLQMWANILKRVPNSVLWLLRFPAVGEPNIQQYAQNMGLPQNRIIFSPVAPKEEHVRRGQLADVCLDTPLCNGHTTGMDVLWAGTPMVTMPGETLASRVAASQLTCLGCLELIAKNRQEYEDIAVKLGTDLEYLKKVRGKVWKQRISSPLFNTKQYTMELERLYLQMWEHYAAGNKPDHMIKPVEVTESA

binding: binds
B2: HA-OGT-K908A (enzyme, UniProt O15294 1-1046)
chain: B1 chain with K908A
